# Data: US20060223884A1, “Compounds and compositions for use in the prevention and treatment of obesity and related syndromes” (priority 2005, published 2006)
# At least one structure is not confirmed: it was looked up by name or label, or the drawing left a doubt.
# Settings: DIO mice
# Excerpt: The objective of this study was to evaluate the effect of chronic administration of 4-hydroxyisoleucine (4-OH, compound 14a) and Rosiglitazone, administered alone or in combination, on food consumption and body weight gain of DIO-mice. Both parameters were monitored for 1 week prior to the commencement of treatment, then for the 28 days of treatment and for an additional 7 days post-treatment.
# A total of 72 animals were used in the study. The animals were distributed into 6 groups (5 treated, 1 control group, all on high fat diet). Each group was composed of 12 animals. The mice were randomized according to body weight and basal glycemia values following a 5±0.5 hour fasting period.
# For the four weeks of treatment, the test articles were dissolved in reverse osmosis water. 4-Hydroxyisoleucine was aliquoted and kept at 4° C. (administration to groups 2, 3, and 6), while Rosiglitazone was freshly prepared daily and kept at 4° C. between the AM and PM administration to groups 4, 5, and 6. Control animals received reverse osmosis water twice daily (group 1). […]
# Food consumption was measured and averaged on a weekly basis beginning one week before the start of treatment as shown in FIGS. 17B and 17D as week −1. Similarly, food consumption was monitored for one week after treatment was stopped and is shown as week 5 in FIGS. 17B and 17D. […]
smiles,measurement,setting,value
"CN(CCOc1ccc(CC2SC(=O)NC2=O)cc1)c1ccccn1 (centres unmarked) [Rosiglitazone, reference compound]",food consumption (FIG. 17D),"4-OH 50 mg/kg, Rosiglitazone 1.5 mg/kg, or the two co-administered",increase in food consumption
same,weight relative to the other groups,Rosiglitazone-treated animals,significant increase in weight
